According to article PMC7177284, “A Coil-to-Helix Transition Serves as a Binding Motif for hSNF5 and BAF155 Interaction” (International Journal of Molecular Sciences, 2020):
No constants are given. Whether binding was seen depends on the method and setting.

Sequences of proteins named here, by UniProt entry; tags and fusion partners are left off. Residues count along the entry.
UniProt Q92922, residues 449-546: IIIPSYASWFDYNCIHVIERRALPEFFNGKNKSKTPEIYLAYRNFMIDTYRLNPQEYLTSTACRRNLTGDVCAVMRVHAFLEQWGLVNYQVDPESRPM

Experiments:
[1] = target: BAF155^SWIRM (SWIRM domain of human BAF155, residues 449–546) (human) (UniProt Q92922); assay: SEC-MALS; Wyatt WTC-030S5 column, 0.5 mL/min, 10 mM HEPES pH 7.0, 100 mM NaCl, 2 mM DTT; hSNF5^171–258 0.2 mM and BAF155^SWIRM 0.3 mM, individually or together; both purified
[2] = target: BAF155^SWIRM (SWIRM domain of human BAF155, residues 449–546) (human) (UniProt Q92922); assay: SEC; Superdex 200 16/60, 25 °C, 10 mM HEPES pH 7.0, 100 mM NaCl, 2 mM DTT; hSNF5^171–258 0.2 mM and BAF155^SWIRM 0.3 mM loaded individually or together; both purified
[3] = target: hSNF5^171–258 (N- and C-terminal elongated hSNF5 RPT1 domain) (human) (UniProt Q12824); assay: SEC-MALS; Wyatt WTC-030S5 column, 0.5 mL/min, 10 mM HEPES pH 7.0, 100 mM NaCl, 2 mM DTT; hSNF5^171–258 0.2 mM and BAF155^SWIRM 0.3 mM, individually or together; both purified
[4] = target: hSNF5^171–258 (N- and C-terminal elongated hSNF5 RPT1 domain) (human) (UniProt Q12824); assay: SEC; Superdex 200 16/60, 25 °C, 10 mM HEPES pH 7.0, 100 mM NaCl, 2 mM DTT; hSNF5^171–258 0.2 mM and BAF155^SWIRM 0.3 mM loaded individually or together; both purified

| binding [1] | binding [2] | binding [3] | binding [4] | Molecule |
| --- | --- | --- | --- | --- |
| no binding (tested: 0.3 mM) | no binding (tested: 0.3 mM) | – | – | BAF155^SWIRM (SWIRM domain of human BAF155, residues 449–546) (from UniProt Q92922 449-546) (domain or fragment) |
| – | – | no binding (tested: 0.2 mM) | no binding (tested: 0.2 mM) | hSNF5^171–258 (N- and C-terminal elongated hSNF5 RPT1 domain) (domain or fragment, human, UniProt Q12824 171-258, looked up, 15N- or 13C,15N-labelled for the NMR experiments; modified pET21b vector; also called human SNF5; SNF5/INI1/BAF47; source: E. coli BL21 (DE3), purified (Ni-NTA, TEV cleavage, Superdex 200); not shown: His6, N-terminal, cleaved) HDPAVIHENASQPEVLVPIRLDMEIDGQKLRDAFTWNMNEKLMTPEMFSEILCDDLDLNPLTFVPAIASAIRQQIESYPTDSILEDQS |
